# Reference: PubChem BioAssay AID493014 (National Center for Advancing Translational Sciences (NCATS), 2011)
# The list shows a part of the results. Shown are side measurements of this screen, not its main read-out; they come without a call. Compounds called inactive in the main read-out are mostly missing here. Words in brackets tell the shape of the fitted curve; partial curves, single points and poor fits give uncertain potencies.
# Experiment: qHTS Assay to Find Inhibitors of Chronic Active B-Cell Receptor Signaling
# Settings: ABC-DLBCL IkBa-CBG/CBR reporter, luminescence ratio (green luciferase fused to IkBa over red control in TMD8 lymphoma cells), 4 h
# Summary of the method: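 TMD8 ABC-DLBCL cells carrying doxycycline-inducible green luciferase fused to IkappaBalpha plus unfused red luciferase were exposed to compounds (up to 46 uM) for 4 hrs at 37C. Activity came from the overlap-corrected green/red luminescence ratio.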
# [1] = measured here: CBR red luminescence, cell number
# [2] = measured here: IkBa-CBG green luminescence
Structure (SMILES),AC50 [1],AC50 [2]
COC(=O)C1C(O)C(C)C(O)C(C)/C=C\C=C(/C)C(=O)Nc2c(C)c(OC(C)=O)c3c(c2O)C(=O)C(C)=C2OCOC(=C23)/C(C)=C/C(C)(O)C(O)C(C)C1O (stereo not drawn),"0.708 µM [falling, full curve, poor fit]",–
Cc1ccccc1OCC(=O)N/N=C/c1cccc2cccnc12,"12.6 µM [falling, partial curve]",–
CCOC(=O)c1cccc(NC(=O)COc2nsnc2N2CCOCC2)c1,"25.1 µM [falling, single point]",–
c1cc2c(cc1[C@H]1OC[C@H]3[C@@H]1CO[C@@H]3c1ccc3c(c1)OCO3)OCO2,"15.8 µM [rising, single point]",–
CCOC(=O)Cn1c(=O)oc2cc(S(=O)(=O)Nc3cccc(C)c3)ccc21,"0.00461 µM [rising, full curve, poor fit]",–
O=C1NC(=O)C(=Cc2cc(Cl)ccc2OCc2ccc(C(=O)O)cc2)C(=O)N1,"12.6 µM [falling, partial curve]","35.5 µM [falling, single point]"
Cc1cccc(OCCCn2c(=O)oc3ccccc32)c1,"2.82 µM [rising, full curve, poor fit]",–
CCOC(=O)C(O)(c1ccc(NC(=S)NC(=O)c2ccc(Cl)cc2Cl)cc1)C(F)(F)F (stereo not drawn),"18.4 µM [falling, partial curve]","29.1 µM [rising, single point]"
CNCCc1c[nH]c2ccccc12,"35.5 µM [falling, single point]",–
O=C(NCCc1ccccc1)c1cnc2ccccc2n1,"10 µM [falling, partial curve]",–
O=c1[nH]c(CN2CCNCC2)nc2ccccc12,"0.731 µM [falling, full curve, poor fit]",–
CC(C)n1c(O)c(C2c3cc(Cl)ccc3Oc3[nH]c(=O)n(C(C)C)c(=O)c32)c(=O)[nH]c1=O (stereo not drawn),"20 µM [falling, single point]",–
CN(C)C(=O)Oc1ccc2c(c1)O/C(=C\c1cccc([N+](=O)[O-])c1)C2=O,"12.6 µM [rising, single point]",–
COC(=O)C1=C(c2cccc(OCc3ccccc3)c2)C[C@@H]2CC[C@H]1N2C(=O)NCCCc1ccccc1,"16.4 µM [falling, single point]",–
COCCCn1c(N)c(C(=O)Nc2ccccc2)c2nc3ccccc3nc21,"10 µM [falling, partial curve, poor fit]",–
CC(=O)Nc1ccc(C(c2c(O)c3ccccc3oc2=O)c2c(C)n(C)n(-c3ccccc3)c2=O)cc1 (stereo not drawn),"4.47 µM [falling, partial curve, poor fit]",–
CCOc1cc2c(cc1OCC)-n1cccc1C(c1cc(C)c(OC)cc1C)NC2 (stereo not drawn),"11.2 µM [falling, single point]",–
COC(=O)C1=Nc2ccccc2/C1=C\c1c(O)n(-c2ccc(OC)cc2)c(=O)[nH]c1=O,"7.94 µM [falling, partial curve, poor fit]",–
Cc1cccnc1NC1=NCC(C)S1 (stereo not drawn),"16.4 µM [rising, single point]",–
Cn1c(=O)oc2cc(S(=O)(=O)N3CCC(C(=O)Nc4ccc(OC(F)(F)F)cc4)CC3)ccc21,"0.00461 µM [rising, full curve, poor fit]",–

Structure (SMILES),AC50 [1],AC50 [2]
Oc1ccc(Nc2nc(-c3ccccc3)nc3ccccc23)cc1,"8.91 µM [falling, partial curve, poor fit]",–
COC(=O)C1=C(c2ccc(OC(F)(F)F)cc2)C[C@@H]2CC[C@H]1N2C(=O)NCc1ccc(F)cc1,"29.1 µM [falling, single point]","32.6 µM [rising, partial curve, poor fit]"
Cc1nn(C)cc1C(=O)NNC(=S)Nc1ccccc1,"35.5 µM [falling, single point]",–
CCOc1cc2c(cc1OCC)-n1cccc1C(c1cccc(F)c1F)NC2 (stereo not drawn),"2.24 µM [rising, full curve, poor fit]",–
C/C=C1\NC(=O)[C@@H](NC(=O)[C@H](CCc2ccc(O)cc2)NC(=O)[C@H](C)NC(=O)[C@H](O)CO)[C@@H](C)OC(=O)[C@H](C(C)C)NC(=O)[C@H](Cc2ccc(O)cc2)N(C)C(=O)[C@H](Cc2ccccc2)N2C(=O)C(CC[C@H]2O)NC1=O (stereo partly drawn),"0.92 µM [rising, full curve, poor fit]",–
CN1C(=O)NC(=O)/C(=C\C=C\c2ccccc2[N+](=O)[O-])C1=O,"3.55 µM [falling, partial curve, poor fit]",–
O=c1[nH]c(=S)n(-c2ccc(Cl)cc2)c(O)c1/C=N/N1CCOCC1,"1.41 µM [falling, full curve, poor fit]",–
CCN1CCN(c2nc3ccccc3s2)CC1,"5.01 µM [rising, full curve, poor fit]",–
Cc1cccc(CCNCc2cc3ccc(C)cc3[nH]c2=O)c1,"35.5 µM [falling, single point]",–
CCCCn1c(NC(=O)c2ccco2)c(C(=O)OCC)c2nc3ccccc3nc21,"17.8 µM [falling, partial curve, poor fit]",–
CCOc1cc(C=C2C(=O)NC(=O)NC2=O)ccc1OS(=O)(=O)c1ccccc1,"6.51 µM [falling, partial curve, poor fit]","32.6 µM [falling, partial curve, poor fit]"
COc1ccccc1OCC(=O)Nc1ccc(Cl)cc1C(=O)c1ccccc1,"0.164 µM [rising, full curve, poor fit]",–
Cn1c(O)c(C=NCCCCCCCCCCC(=O)O)c(=O)n(C)c1=O,"35.5 µM [falling, single point]",–
Cc1ccc(-c2nn(Cc3ccccc3)cc2C=O)cc1,"5.17 µM [rising, partial curve, poor fit]",–
CN(C)CCn1c(=N)n(CC(O)c2ccc(Cl)c(Cl)c2)c2ccccc21 (stereo not drawn),"11.2 µM [falling, partial curve, poor fit]",–
O=c1c2ccccc2nc(/C=C/c2ccccc2)n1-c1ccccc1F,"17.8 µM [rising, single point]",–
CN1C(=O)C(=Cc2sc(=O)n(-c3ccccc3)c2N(C)C)C(=O)N(C)C1=O,"8.91 µM [falling, partial curve]",–
O=C1NC(=O)C(CCc2ccncc2)(Cc2cccc(Cl)c2Cl)C(=O)N1c1ccc(Br)cc1 (stereo not drawn),"23.1 µM [rising, partial curve, poor fit]",–
CCC(=O)CC(c1ccccc1)c1c(O)c2ccccc2sc1=O (stereo not drawn),"18.4 µM [rising, partial curve]",–
CC1=CC(=O)C2=C(C)CC(O)C3C(C)C(=O)OC3C12 (stereo not drawn),"0.282 µM [falling, full curve, poor fit]",–

Structure (SMILES),AC50 [1],AC50 [2]
CCCCC(=O)N/N=C/c1c(O)n(Cc2ccc(F)cc2)c(=O)[nH]c1=O,"11.2 µM [rising, partial curve, poor fit]",–
COc1cc(C(c2c(O)c3ccccc3oc2=O)c2c(C)n(C)n(-c3ccccc3)c2=O)ccc1O (stereo not drawn),"7.31 µM [falling, partial curve]",–
CCN1CCN(c2ccc([N+](=O)[O-])cc2C(=O)OC)CC1,"4.47 µM [rising, partial curve, poor fit]",–
Cc1ccccc1N1C(=O)CC(=O)NC1=O,"1.03 µM [falling, partial curve, poor fit]",–
CN(C)CC1Oc2ccccc2OC1(O)c1ccccc1 (stereo not drawn),"12.6 µM [falling, partial curve, poor fit]",–
CN1CCC(n2nccc2N)CC1,"1.03 µM [falling, full curve, poor fit]",–
Nc1ccc(Cl)cc1C(=O)c1ccccc1Cl,–,"18.4 µM [falling, partial curve, poor fit]"
Cc1csc(NC(=O)C2CCCN(S(=O)(=O)c3ccc4c(c3)oc(=O)n4C)C2)n1 (stereo not drawn),"29.1 µM [falling, single point]",–
CCOC(=O)C(O)(c1ccc(N=Cc2ccccc2O)c(C)c1)C(F)(F)F (stereo not drawn),"0.731 µM [rising, full curve, poor fit]",–
Cc1ccc(Cn2nnnc2CN2CCC(n3nnc4cc(C(F)(F)F)ccc43)CC2)cc1,"20.6 µM [falling, single point]",–
CN(Cc1cccc(-n2cccn2)c1)C(=O)CCc1nnc(C2CCCCC2)o1,"35.5 µM [rising, partial curve, poor fit]",–
O=C1NC(=O)N(CCNc2ncc(C(F)(F)F)cc2Cl)C(=O)C1Cc1ccc(Cl)cc1 (stereo not drawn),"35.5 µM [falling, single point]",–
Ic1ccccc1CN[C@@H]1C2CCN(CC2)[C@@H]1C(c1ccccc1)c1ccccc1,"10.3 µM [falling, partial curve]","23.1 µM [rising, partial curve, poor fit]"
O=C(C(=O)N1CCN(c2ccccc2F)CC1)c1c[nH]c2ccccc12,"10 µM [falling, partial curve]",–
CCCCCCCSc1cc(OC)c(CCNC)cc1OC,"15.8 µM [falling, single point]",–
COc1ccccc1OC(=O)Nc1ccc(Cl)cc1,"0.447 µM [rising, full curve, poor fit]",–
NCCCN1CCN(c2ccccc2)CC1,"12.6 µM [falling, partial curve, poor fit]",–
C=CCn1c(O)c(C(CC)=NCC2CCCO2)c(=O)[nH]c1=O (stereo not drawn),"7.94 µM [falling, partial curve, poor fit]",–

# Shown bar-delimited: entries from further up.
Structure (SMILES) | AC50 [1] | AC50 [2]
CCN1CCN(c2ccc([N+](=O)[O-])cc2C(=O)OC)CC1 | 4.47 µM [rising, partial curve, poor fit] | –
CN(C)CC1Oc2ccccc2OC1(O)c1ccccc1 (stereo not drawn) | 12.6 µM [falling, partial curve, poor fit] | –
Cc1csc(NC(=O)C2CCCN(S(=O)(=O)c3ccc4c(c3)oc(=O)n4C)C2)n1 (stereo not drawn) | 29.1 µM [falling, single point] | –
O=C1NC(=O)N(CCNc2ncc(C(F)(F)F)cc2Cl)C(=O)C1Cc1ccc(Cl)cc1 (stereo not drawn) | 35.5 µM [falling, single point] | –
